# Test results reported in the supplement of paper PMC10849652.
# The chains behind the UniProt entries cited, without tags or fusion partners. Where a name states a change or a piece, a line headed by the entry shows the natural chain unless it says otherwise.
# UniProt O00170: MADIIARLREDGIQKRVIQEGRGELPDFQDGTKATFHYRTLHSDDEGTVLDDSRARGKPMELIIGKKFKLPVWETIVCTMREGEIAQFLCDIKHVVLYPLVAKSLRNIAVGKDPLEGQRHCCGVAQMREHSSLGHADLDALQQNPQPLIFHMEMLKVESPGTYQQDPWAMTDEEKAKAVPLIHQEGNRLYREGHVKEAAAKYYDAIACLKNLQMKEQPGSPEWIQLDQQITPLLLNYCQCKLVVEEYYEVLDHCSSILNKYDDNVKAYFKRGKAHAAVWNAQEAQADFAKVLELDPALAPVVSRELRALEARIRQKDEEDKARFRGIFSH
# UniProt Q03154: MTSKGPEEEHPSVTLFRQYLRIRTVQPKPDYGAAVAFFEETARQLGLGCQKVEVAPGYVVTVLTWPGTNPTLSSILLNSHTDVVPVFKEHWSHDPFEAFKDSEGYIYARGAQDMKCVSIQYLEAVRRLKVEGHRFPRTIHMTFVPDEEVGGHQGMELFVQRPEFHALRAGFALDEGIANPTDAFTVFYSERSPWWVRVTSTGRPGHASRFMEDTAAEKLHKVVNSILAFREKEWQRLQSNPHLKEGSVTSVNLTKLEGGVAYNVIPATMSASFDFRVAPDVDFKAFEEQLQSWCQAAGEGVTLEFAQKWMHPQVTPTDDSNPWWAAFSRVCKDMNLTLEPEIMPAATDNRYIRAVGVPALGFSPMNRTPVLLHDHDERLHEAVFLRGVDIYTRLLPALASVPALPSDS
# UniProt P07311: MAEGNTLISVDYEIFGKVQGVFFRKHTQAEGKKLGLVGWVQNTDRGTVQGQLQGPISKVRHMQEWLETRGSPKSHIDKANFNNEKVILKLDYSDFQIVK
# UniProt Q7Z591: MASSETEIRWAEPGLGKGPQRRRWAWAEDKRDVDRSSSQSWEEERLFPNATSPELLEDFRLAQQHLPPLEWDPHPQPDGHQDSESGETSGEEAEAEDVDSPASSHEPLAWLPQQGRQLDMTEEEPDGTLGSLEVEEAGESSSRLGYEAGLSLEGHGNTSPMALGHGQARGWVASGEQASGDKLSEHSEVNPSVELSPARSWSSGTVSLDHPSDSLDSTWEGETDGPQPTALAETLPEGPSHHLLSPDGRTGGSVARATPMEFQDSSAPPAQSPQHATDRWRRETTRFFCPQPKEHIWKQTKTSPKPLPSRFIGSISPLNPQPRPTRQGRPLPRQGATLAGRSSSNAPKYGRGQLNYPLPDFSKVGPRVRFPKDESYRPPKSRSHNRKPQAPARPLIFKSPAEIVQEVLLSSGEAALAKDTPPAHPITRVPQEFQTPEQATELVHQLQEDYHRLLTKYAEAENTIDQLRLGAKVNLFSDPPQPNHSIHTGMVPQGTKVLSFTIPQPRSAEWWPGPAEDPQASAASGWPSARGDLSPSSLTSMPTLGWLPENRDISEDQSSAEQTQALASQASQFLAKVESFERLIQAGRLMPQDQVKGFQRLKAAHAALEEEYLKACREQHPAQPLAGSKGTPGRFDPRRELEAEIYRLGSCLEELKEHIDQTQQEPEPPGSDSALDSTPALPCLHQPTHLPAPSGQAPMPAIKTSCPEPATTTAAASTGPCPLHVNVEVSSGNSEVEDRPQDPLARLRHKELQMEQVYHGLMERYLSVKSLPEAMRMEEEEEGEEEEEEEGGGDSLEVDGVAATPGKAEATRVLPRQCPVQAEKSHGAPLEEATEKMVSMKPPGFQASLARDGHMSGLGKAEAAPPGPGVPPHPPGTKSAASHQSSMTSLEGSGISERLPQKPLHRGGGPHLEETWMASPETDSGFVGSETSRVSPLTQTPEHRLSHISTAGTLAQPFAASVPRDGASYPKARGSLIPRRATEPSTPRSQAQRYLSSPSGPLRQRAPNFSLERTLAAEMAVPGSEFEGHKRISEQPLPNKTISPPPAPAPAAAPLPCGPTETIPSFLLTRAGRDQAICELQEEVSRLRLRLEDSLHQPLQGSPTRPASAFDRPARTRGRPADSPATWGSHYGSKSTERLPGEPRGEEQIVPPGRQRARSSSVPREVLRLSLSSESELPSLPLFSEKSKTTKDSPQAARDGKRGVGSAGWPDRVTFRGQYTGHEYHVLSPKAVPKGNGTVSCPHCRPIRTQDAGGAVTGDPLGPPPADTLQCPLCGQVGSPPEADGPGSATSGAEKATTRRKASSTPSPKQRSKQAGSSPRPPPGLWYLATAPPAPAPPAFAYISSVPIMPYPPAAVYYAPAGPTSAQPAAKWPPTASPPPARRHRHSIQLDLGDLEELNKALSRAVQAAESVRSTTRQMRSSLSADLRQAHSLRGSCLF
# UniProt P42330: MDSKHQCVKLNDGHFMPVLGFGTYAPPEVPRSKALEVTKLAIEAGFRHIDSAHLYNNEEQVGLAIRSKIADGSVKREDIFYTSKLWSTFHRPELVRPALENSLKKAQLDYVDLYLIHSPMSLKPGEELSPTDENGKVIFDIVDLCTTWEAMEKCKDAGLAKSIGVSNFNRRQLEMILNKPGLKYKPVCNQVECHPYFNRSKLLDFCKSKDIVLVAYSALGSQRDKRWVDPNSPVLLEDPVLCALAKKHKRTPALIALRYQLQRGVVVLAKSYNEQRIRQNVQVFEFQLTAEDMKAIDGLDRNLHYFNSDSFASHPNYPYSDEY
# UniProt O60488: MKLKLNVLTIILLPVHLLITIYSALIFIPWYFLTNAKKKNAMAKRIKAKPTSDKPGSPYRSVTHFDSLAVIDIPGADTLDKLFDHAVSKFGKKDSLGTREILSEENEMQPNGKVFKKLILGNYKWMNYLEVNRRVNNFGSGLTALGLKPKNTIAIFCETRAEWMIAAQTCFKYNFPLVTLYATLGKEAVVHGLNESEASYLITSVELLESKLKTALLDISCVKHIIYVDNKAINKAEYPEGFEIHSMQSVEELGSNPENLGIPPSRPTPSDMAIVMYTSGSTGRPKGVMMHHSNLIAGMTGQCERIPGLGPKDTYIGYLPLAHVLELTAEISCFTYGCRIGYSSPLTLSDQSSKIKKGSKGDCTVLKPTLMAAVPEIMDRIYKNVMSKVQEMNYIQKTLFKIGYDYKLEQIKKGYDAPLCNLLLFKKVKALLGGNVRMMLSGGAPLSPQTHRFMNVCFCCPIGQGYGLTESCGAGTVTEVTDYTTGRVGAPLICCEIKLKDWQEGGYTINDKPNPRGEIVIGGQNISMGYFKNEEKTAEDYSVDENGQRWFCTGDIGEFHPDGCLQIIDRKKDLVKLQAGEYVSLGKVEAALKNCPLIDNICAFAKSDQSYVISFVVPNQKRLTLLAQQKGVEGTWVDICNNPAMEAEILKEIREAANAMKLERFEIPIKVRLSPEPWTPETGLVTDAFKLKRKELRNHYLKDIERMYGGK
# UniProt P24666: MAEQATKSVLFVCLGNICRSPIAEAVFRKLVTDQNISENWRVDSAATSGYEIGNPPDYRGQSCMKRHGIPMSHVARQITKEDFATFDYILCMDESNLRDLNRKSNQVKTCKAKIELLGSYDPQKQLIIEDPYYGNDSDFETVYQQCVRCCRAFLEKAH
# UniProt P61163, whole entry, looked up: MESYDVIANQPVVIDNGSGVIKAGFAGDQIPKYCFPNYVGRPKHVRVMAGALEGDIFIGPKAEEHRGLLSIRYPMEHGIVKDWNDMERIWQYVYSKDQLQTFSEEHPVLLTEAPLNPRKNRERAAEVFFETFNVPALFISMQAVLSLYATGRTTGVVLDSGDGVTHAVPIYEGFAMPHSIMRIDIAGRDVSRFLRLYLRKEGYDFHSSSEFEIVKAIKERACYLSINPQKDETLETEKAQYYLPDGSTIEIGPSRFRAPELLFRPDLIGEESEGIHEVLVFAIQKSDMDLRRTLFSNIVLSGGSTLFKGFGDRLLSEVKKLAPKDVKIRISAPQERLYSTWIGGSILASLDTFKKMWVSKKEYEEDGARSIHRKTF
# UniProt Q02952: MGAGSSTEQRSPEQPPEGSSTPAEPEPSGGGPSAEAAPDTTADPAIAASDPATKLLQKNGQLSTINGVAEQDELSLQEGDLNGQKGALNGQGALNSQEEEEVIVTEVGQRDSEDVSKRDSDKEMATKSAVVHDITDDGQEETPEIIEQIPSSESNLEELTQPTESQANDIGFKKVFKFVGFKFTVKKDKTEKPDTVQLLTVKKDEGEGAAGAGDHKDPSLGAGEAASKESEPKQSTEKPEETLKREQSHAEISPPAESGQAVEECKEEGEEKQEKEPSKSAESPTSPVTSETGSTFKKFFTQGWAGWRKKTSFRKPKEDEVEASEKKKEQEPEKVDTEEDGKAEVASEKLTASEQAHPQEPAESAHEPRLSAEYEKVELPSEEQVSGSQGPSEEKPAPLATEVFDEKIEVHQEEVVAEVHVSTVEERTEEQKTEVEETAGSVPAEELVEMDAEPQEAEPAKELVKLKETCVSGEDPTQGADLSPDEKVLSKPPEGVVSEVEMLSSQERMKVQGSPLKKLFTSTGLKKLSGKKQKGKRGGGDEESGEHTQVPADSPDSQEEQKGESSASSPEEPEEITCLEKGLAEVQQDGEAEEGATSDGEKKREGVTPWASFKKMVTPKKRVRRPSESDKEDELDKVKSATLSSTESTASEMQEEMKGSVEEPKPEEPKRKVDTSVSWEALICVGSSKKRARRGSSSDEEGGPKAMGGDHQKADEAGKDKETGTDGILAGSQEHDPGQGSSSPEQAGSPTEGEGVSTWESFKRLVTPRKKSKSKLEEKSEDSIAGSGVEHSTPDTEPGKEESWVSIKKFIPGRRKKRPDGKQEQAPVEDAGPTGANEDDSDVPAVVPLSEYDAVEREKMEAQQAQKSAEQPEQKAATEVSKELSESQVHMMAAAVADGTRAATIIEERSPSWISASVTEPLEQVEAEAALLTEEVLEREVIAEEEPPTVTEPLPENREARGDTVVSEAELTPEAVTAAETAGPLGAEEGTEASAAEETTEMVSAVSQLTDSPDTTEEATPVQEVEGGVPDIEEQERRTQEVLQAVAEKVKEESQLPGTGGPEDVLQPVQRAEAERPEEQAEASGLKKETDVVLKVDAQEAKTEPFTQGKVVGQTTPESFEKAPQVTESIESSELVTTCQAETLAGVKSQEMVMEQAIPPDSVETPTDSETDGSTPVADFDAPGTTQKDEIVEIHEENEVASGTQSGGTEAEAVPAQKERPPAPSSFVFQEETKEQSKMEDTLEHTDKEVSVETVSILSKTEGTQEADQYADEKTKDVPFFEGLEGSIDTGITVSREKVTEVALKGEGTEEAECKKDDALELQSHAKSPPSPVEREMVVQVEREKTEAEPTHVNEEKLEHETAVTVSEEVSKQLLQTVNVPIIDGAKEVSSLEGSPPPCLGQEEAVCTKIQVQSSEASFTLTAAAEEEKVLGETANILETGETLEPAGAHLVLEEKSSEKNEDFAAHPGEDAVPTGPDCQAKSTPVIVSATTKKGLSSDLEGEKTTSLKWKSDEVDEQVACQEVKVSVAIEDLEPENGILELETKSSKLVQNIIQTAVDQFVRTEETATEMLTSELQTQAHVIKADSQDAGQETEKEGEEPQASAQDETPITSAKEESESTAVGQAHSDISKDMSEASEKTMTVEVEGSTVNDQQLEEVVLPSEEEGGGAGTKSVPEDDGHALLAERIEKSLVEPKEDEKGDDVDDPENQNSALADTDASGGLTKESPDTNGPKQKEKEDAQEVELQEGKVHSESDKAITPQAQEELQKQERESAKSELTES
# UniProt O95433, whole entry, looked up: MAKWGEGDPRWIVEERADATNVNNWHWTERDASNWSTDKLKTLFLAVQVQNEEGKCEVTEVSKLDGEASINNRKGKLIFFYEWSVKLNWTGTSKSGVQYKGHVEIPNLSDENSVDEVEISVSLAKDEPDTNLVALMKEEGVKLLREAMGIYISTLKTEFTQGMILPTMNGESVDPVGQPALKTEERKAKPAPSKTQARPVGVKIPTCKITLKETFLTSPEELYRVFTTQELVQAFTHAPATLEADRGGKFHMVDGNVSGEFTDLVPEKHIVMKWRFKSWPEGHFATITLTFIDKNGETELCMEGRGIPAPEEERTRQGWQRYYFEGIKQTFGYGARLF
# UniProt O95831, whole entry, looked up: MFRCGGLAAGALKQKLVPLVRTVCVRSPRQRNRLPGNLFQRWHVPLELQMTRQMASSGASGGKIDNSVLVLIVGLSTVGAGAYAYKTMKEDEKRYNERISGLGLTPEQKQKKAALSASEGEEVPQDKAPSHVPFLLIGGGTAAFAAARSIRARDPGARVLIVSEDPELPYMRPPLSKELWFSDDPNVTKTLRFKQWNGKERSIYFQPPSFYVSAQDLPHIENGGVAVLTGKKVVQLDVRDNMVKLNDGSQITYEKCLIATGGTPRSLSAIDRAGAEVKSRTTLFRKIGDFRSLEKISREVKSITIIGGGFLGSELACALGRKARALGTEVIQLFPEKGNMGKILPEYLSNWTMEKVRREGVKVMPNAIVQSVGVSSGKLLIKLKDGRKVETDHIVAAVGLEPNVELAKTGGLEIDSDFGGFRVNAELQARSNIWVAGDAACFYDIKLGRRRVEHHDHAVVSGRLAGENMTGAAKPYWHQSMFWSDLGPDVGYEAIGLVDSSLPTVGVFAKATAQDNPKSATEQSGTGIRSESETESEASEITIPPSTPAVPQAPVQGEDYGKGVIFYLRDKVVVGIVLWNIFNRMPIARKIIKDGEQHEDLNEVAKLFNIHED
# Some of the results follow.
# Compound: CC1=C(C=C(C=C1)NC(=O)C2=CC(=CC=C2)N(C)C)NC(=O)C3=CC=C(C=C3)O
# Assay: log2 fold change, soluble protein after heating vs DMSO (PISA); higher = thermal stabilisation; K562 lysate, 10 uM; active = over 0.2 and 3.5 SD of the protein, either way, in both replicates (recomputed)
# Outline: (§1)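 Dounce homogenisation of K562 pellets in PBS pH 7.4 with 1 mM MgCl2 produced a crude extract, used at 1 mg/mL protein. Exposure to 10 μM compound lasted 30 min, and aliquots were then heated for 3 min across 48°C-58°C, pooled and brought to 0.5% NP-40 at 4°C. The supernatant after 21,000xg for 90 min was quantified by TMTpro 16plex LC-MS/MS with channel sums equalised. Duplicate values are given as log-two fold change in thermal stability relative to solvent controls.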
row,Target,log2 fold change
1,AIP (UniProt O00170),inactive: 0
2,ACY1 (UniProt Q03154),inactive: -0.02
3,ACTG1 (UniProt I3L4N8),inactive: -0.006
4,ACYP1 (UniProt P07311),inactive: -0.024
5,ADIPOR2 (UniProt Q86V24),inactive: -0.067
6,ACSL1 (UniProt P33121),inactive: 0.026
7,ACOT9 isoform 4 (UniProt Q9Y305),inactive: -0.018
8,AGFG1 isoform 4 (UniProt P52594),inactive: -0.021
9,ADA (UniProt P00813),inactive: -0.021
10,ADAM10 (UniProt O14672),inactive: -0.023
11,AFF4 (UniProt Q9UHB7),inactive: 0.002
12,AKNA (UniProt Q7Z591),inactive: -0.155
13,ACSM3 (UniProt Q53FZ2),inactive: 0.034
14,ADH5 (UniProt P11766),inactive: -0.003
15,ADNP (UniProt Q9H2P0),inactive: 0.016
16,AKR1C3 (UniProt P42330),inactive: -0.035
17,ADD1 isoform 3 (UniProt P35611),inactive: -0.009

row,Target,log2 fold change
1,ADO (UniProt Q96SZ5),inactive: -0.012
2,ACSL4 (UniProt O60488),inactive: 0.052
3,AKR1A1 (UniProt P14550),inactive: 0.002
4,ACP1 isoform 2 (UniProt P24666),inactive: 0.023
5,ACTR1A (UniProt P61163),inactive: -0.038
6,AKAP12 (UniProt Q02952),inactive: -0.073
7,AK4 (UniProt P27144),inactive: 0.022
8,AGPS (UniProt O00116),inactive: -0.005
9,"ACTB, A0A2R8Y793",inactive: 0.017
10,ACTR2 (UniProt P61160),inactive: -0.003
11,ACSF3 (UniProt Q4G176),inactive: 0.032
12,AGTPBP1 (UniProt Q9UPW5),inactive: 0.005
13,AHSA1 (UniProt O95433),inactive: -0.013
14,ADPRH (UniProt P54922),inactive: -0.017
15,AFF1 isoform 2 (UniProt P51825),inactive: 0.02
16,AGAP3 isoform 4 (UniProt Q96P47),inactive: 0.019
17,AIFM1 (UniProt O95831),inactive: -0.015

# Compound: CC1=CC=C(C=C1)SC2=C3C=C(SC3=CN=C2)C(=O)N
# Assay: as above
# Outline: as §1
row,Target,log2 fold change
1,AIP (UniProt O00170),inactive: -0.023
2,ACY1 (UniProt Q03154),inactive: -0.011
3,ACTG1 (UniProt I3L4N8),inactive: 0.033
4,ACYP1 (UniProt P07311),inactive: 0.021
5,ADIPOR2 (UniProt Q86V24),inactive: -0.055
6,ACSL1 (UniProt P33121),inactive: -0.004
7,ACOT9 isoform 4 (UniProt Q9Y305),inactive: 0.021
8,AGFG1 isoform 4 (UniProt P52594),inactive: -0.02
9,ADA (UniProt P00813),inactive: -0.024
10,ADAM10 (UniProt O14672),inactive: -0.043
11,AFF4 (UniProt Q9UHB7),inactive: 0.024
12,AKNA (UniProt Q7Z591),inactive: 0.022
13,ACSM3 (UniProt Q53FZ2),inactive: -0.007
14,ADH5 (UniProt P11766),inactive: 0.001
15,ADNP (UniProt Q9H2P0),inactive: 0.015
16,AKR1C3 (UniProt P42330),inactive: 0.001
17,ADD1 isoform 3 (UniProt P35611),inactive: -0.019

row,Target,log2 fold change
1,ADO (UniProt Q96SZ5),inactive: -0.034
2,ACSL4 (UniProt O60488),inactive: 0.021
3,AKR1A1 (UniProt P14550),inactive: 0.007
4,ACP1 isoform 2 (UniProt P24666),inactive: 0.015
5,ACTR1A (UniProt P61163),inactive: -0.001
6,AKAP12 (UniProt Q02952),inactive: -0.01
7,AK4 (UniProt P27144),inactive: -0.017
8,AGPS (UniProt O00116),inactive: -0.02
9,"ACTB, A0A2R8Y793",inactive: 0.013
10,ACTR2 (UniProt P61160),inactive: 0.003
11,ACSF3 (UniProt Q4G176),inactive: 0.002
12,AGTPBP1 (UniProt Q9UPW5),inactive: 0.012
13,AHSA1 (UniProt O95433),inactive: -0.019
14,ADPRH (UniProt P54922),inactive: -0.117
15,AFF1 isoform 2 (UniProt P51825),inactive: -0.002
16,AGAP3 isoform 4 (UniProt Q96P47),inactive: 0.012
17,AIFM1 (UniProt O95831),inactive: 0.009
